# Earlier results in patent US20170189326A1, “Topical Antiaging Polyphenol Compositions” (priority 2015, published 2017).
# At least one compound was matched to its structure with a doubt left.
# Assays:
# [1] = tested on: HO-1; conditions: oral administration, rats
# [2] = tested on: NFr2-ARE binding; conditions: oral administration, rats
smiles,measurement,setting,value
"COc1cc(CCC(=O)CC(=O)CCc2ccc(O)c(OC)c2)ccc1O [tetrahydrocurcumin (THC), tetrahydrocurcumin]",HO-1 induction,[1],failed to induce
same,induction of NFr2-ARE binding,[2],failed to induce
